Experimental data taken from the supplement of paper PMC10849652.
The list shows a part of the results.

Amino acid sequences for entries named in this document (tags omitted). A change or cut given only in a name is not applied to a line headed by its entry.
UniProt Q9HCU9: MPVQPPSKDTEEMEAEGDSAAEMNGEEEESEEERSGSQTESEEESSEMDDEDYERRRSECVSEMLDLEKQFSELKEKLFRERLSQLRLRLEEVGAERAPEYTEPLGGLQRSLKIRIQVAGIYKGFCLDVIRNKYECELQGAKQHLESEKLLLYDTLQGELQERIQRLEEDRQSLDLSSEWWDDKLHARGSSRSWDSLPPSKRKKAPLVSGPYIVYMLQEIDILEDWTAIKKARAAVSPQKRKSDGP
UniProt O43521, whole entry, looked up: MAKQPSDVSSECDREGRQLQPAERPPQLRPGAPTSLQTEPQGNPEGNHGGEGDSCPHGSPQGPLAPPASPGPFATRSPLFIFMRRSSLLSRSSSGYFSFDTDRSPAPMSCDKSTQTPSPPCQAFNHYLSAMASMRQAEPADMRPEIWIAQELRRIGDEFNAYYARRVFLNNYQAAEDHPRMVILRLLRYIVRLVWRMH
UniProt Q4VC05, whole entry, looked up: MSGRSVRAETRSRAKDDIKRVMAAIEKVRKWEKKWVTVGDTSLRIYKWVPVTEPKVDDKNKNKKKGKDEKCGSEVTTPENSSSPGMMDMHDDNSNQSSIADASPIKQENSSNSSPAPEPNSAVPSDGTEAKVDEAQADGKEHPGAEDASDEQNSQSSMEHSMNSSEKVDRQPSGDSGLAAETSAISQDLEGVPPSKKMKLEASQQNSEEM
UniProt Q9NYM9: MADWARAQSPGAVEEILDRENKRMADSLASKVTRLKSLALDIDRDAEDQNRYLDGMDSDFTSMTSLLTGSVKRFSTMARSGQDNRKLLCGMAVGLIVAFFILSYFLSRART
UniProt Q9NZS9: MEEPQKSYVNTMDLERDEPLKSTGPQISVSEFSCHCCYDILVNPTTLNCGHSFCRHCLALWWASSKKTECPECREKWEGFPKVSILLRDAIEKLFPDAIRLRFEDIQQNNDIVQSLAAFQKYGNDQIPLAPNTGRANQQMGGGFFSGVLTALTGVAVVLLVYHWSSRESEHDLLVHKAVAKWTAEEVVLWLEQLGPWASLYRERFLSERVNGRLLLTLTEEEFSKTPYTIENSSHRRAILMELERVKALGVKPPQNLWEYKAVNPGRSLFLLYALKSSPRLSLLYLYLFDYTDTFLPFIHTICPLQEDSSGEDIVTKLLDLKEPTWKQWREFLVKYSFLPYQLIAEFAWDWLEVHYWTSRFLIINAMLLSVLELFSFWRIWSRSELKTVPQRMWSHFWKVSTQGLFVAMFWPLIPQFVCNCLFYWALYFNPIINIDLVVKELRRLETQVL
UniProt Q5T6C5: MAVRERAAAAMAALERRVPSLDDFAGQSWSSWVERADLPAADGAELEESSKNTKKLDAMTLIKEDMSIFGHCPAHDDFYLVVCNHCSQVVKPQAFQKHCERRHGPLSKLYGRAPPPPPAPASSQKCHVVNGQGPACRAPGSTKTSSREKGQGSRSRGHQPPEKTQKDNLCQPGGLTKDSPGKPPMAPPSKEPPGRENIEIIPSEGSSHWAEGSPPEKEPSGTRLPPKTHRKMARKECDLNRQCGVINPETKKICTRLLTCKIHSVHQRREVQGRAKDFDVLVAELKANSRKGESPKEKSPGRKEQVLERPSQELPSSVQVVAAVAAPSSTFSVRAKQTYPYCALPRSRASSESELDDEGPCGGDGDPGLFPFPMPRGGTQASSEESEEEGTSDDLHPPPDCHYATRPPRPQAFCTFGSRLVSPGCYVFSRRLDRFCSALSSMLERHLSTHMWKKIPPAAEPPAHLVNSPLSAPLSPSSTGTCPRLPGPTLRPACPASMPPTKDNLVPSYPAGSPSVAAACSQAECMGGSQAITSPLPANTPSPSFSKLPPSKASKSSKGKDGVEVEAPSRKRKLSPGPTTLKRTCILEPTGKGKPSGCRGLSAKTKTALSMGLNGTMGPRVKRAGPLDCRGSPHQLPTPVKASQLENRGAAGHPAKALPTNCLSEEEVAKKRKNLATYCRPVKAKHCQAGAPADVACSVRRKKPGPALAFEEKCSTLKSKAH
UniProt O00512: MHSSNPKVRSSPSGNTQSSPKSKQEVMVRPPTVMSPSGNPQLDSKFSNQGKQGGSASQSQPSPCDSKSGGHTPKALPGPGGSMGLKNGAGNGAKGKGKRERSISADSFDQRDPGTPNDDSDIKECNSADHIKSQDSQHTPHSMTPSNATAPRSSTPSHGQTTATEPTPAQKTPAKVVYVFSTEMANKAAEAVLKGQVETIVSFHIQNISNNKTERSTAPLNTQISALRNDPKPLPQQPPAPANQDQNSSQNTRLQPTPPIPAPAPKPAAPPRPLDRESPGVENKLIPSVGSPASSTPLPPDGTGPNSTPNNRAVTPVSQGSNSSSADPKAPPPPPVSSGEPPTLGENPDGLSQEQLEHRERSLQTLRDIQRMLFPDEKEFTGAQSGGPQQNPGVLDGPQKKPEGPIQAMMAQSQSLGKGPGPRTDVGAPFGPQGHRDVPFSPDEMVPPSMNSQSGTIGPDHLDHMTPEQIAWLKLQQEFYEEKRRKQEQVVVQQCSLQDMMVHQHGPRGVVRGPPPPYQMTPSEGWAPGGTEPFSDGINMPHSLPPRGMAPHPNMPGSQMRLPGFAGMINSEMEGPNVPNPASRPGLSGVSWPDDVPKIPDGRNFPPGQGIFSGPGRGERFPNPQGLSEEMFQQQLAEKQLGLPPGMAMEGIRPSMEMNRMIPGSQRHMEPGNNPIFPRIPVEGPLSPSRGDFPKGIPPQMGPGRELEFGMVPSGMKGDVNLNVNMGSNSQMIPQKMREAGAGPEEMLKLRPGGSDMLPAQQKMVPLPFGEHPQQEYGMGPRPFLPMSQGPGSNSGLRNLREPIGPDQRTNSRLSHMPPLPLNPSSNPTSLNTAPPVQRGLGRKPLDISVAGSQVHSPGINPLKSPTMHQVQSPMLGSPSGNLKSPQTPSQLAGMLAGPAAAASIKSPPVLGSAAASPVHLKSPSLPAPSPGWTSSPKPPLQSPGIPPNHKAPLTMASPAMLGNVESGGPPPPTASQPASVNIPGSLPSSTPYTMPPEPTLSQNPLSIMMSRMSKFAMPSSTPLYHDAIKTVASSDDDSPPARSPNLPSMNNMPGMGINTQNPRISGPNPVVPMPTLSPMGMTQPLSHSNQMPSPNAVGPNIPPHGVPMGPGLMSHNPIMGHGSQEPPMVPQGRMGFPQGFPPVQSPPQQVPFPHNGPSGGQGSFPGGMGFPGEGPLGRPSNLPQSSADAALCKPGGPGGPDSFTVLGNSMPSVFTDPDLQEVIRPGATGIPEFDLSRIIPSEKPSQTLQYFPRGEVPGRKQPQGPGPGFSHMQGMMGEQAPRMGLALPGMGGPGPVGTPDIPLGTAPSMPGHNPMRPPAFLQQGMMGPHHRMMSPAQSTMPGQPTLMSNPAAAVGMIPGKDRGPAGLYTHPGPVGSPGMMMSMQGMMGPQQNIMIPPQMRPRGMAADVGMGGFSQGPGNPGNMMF
UniProt Q8TBE0: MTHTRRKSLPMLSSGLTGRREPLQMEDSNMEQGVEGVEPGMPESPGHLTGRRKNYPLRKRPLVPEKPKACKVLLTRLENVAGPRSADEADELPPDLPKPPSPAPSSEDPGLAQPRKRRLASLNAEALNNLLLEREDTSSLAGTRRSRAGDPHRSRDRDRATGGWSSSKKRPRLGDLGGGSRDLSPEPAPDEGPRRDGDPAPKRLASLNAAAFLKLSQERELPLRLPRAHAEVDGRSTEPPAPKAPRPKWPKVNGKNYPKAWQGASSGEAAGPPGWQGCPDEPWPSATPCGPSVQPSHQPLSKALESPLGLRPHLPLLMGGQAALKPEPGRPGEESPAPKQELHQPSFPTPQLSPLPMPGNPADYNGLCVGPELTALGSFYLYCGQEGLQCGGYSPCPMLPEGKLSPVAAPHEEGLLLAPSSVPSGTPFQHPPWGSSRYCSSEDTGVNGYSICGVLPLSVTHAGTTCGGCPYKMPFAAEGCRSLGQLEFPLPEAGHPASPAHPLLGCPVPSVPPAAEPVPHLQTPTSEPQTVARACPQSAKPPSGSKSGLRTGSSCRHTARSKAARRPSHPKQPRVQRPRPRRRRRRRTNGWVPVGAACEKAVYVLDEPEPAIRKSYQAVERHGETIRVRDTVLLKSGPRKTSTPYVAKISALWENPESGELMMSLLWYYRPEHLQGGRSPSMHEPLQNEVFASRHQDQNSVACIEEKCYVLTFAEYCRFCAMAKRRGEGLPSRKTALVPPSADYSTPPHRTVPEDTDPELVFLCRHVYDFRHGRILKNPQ
UniProt Q8TDL5: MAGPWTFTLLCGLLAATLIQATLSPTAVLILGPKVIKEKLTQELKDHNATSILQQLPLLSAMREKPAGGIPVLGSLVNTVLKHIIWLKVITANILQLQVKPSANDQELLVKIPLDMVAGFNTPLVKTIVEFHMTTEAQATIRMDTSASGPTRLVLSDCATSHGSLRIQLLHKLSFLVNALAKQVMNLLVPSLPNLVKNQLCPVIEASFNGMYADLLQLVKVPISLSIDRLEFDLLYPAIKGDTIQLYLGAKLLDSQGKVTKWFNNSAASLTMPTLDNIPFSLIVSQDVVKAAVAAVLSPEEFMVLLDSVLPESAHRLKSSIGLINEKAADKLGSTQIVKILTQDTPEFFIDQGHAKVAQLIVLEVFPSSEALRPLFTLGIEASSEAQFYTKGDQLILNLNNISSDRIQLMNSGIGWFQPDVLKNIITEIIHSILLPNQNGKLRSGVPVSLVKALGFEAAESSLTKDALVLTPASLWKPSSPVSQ
UniProt Q96FH0: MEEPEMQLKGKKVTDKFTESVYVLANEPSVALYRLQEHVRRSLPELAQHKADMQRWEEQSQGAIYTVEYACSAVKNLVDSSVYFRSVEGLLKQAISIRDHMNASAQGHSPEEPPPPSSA
UniProt Q96GD4, whole entry, looked up: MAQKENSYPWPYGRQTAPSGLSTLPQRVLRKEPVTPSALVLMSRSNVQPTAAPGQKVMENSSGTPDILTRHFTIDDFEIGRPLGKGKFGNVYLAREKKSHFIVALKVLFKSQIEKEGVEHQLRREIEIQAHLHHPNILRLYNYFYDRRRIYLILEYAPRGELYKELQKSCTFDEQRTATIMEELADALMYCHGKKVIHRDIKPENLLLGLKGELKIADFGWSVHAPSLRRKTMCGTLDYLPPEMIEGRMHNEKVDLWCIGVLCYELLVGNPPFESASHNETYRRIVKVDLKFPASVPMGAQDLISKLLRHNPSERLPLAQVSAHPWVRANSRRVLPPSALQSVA
UniProt Q9H6U6: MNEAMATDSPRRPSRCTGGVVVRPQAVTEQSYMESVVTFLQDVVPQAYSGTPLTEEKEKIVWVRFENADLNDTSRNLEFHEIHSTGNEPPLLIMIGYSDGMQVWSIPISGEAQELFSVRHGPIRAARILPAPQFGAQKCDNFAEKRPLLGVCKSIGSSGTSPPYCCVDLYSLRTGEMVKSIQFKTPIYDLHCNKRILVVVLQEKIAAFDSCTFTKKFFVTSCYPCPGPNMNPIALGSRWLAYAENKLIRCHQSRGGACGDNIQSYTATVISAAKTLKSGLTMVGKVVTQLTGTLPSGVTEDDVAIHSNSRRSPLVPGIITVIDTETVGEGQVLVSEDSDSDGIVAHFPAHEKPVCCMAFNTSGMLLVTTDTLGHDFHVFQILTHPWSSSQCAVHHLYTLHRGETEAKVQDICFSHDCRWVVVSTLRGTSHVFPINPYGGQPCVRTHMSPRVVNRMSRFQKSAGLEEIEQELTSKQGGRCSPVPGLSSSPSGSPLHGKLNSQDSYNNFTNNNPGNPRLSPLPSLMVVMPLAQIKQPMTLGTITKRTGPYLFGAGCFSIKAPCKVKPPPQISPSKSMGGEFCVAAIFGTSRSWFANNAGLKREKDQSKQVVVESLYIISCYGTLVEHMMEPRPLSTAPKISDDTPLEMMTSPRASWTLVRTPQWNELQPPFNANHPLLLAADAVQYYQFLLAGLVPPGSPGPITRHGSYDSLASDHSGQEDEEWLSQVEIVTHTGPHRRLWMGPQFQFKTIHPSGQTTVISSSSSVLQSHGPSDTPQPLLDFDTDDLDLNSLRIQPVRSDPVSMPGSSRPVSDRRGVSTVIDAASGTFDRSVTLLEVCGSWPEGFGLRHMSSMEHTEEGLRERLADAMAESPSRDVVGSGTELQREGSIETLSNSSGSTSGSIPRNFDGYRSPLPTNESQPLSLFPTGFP
UniProt O60238, whole entry, looked up: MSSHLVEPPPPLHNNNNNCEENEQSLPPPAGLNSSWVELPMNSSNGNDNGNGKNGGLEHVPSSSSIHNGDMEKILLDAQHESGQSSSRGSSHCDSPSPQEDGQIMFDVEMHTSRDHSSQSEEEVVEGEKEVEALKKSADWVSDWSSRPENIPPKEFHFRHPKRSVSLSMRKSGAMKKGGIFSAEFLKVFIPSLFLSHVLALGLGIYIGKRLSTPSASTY

The targets below were run with O=C1NC(=O)C(c2cnc3ccccn23)=C1c1cn2c3c(cc(F)cc13)CN(C(=O)N1CCCCC1)CC2 (assay: log2 fold change, soluble protein after heating vs DMSO (PISA); higher = thermal stabilisation; K562 cells, 10 uM, 30 min; active = over 0.2 and 3.5 SD of the protein, either way, in both replicates (recomputed)).
In short: (§1)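 Soluble protein was defined as the supernatant after 21,000xg for 90 min. It came from K562 cells at 2×10^6 cells/mL given 10 μM compound for 30 min, heated in aliquots for 3 min across 48°C-58°C, pooled, and extracted in PBS with 0.5% NP-40 at 4°C, and was quantified by TMTpro 16plex LC-MS/MS with equalised channel sums. Thermal stability against control samples, from duplicates, is reported as log2 fold change.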

log2 fold change, inactive:
BRMS1 (UniProt Q9HCU9) -0.033
BCL2L11 (UniProt O43521) -0.016
BCL7A isoform 2 (UniProt Q4VC05) 0.107
BET1L (UniProt Q9NYM9) -0.028
BFAR (UniProt Q9NZS9) -0.008
AURKAIP1 (UniProt Q9NWT8) 0.339
ATXN7L2 (UniProt Q5T6C5) 0.026
BPTF (UniProt Q12830) 0.053
BCL9 (UniProt O00512) -0.149

These targets were tested with c1cc(OCCN2CCCCC2)cc(-c2n[nH]c3ccc(-c4nnc[nH]4)cc23)c1 in the same assay as above.
In short: as §1

log2 fold change, inactive:
ATXN2 (UniProt F8W0B5) -0.094
BAHD1 (UniProt Q8TBE0) -0.075
BRMS1 (UniProt Q9HCU9) -0.178
BPIFB1 (UniProt Q8TDL5) -0.141
BCL2L11 (UniProt O43521) 0.141
BORCS8 (UniProt Q96FH0) 0.002
BCL7A isoform 2 (UniProt Q4VC05) -0.114
BET1L (UniProt Q9NYM9) 0.052
AURKB isoform 5 (UniProt Q96GD4) 0.137
AURKAIP1 (UniProt Q9NWT8) -0.156
BAZ1B (UniProt Q9UIG0) -0.028
BCAS3 isoform 8 (UniProt Q9H6U6) -0.199
BCL9 (UniProt O00512) 0.03
BNIP3L (UniProt O60238) -0.012
